PubChem BioAssay AID624331 (National Center for Advancing Translational Sciences (NCATS), 2012)
The inconclusive results got no clear call from the source; some entries with a clear call stand among them for comparison. A potency beside an inconclusive call is a rough fit, not a confirmed value. Calls of active or inactive are those of the source. Calls follow the shape of the dose curve; as a rule, active = well fitted activation curve with a large enough effect; inconclusive = small, poorly fitted or top-dose-only effect; inactive = no such curve, though single readings can be large or run the other way.

Assay: qHTS assay for re-activators of p53 using a Luc reporter: Hit Validation with no p53 Expressed; as to activity change, positive = activation: 0% is about no effect
Settings: p53-null cells, luciferase reporter counter-screen; series mostly up to 46.1 µM; activity change, positive = activation: at the top concentration
Source text: The p53 tumor suppressor plays a key role in suppression of tumorigenesis and in human carcinogenesis. It is frequently found inactivated in human cancers, mainly by point mutation. These point mutations are found in a wide variety of human cancers and a majority of them affect the DNA binding domain of the protein. The point mutations either alter native p53 conformation or abolish DNA contact. Additionally, cancer cells with p53 mutations are more resistant to chemo-radiation therapies.
This counter screen was run against the hits identified from the primary screen. It uses a cell line that was not transfected with p53. Compounds that show activity in this counter screen show unspecific activation of the assay system and are excluded from further consideration.
NIH Chemical Genomics Center [NCGC]
NIH Molecular Libraries Probe Production Centers Network [MLPCN]
Assay Provider (PI): Yi Sung, University of Michigan at Ann Arbor
5ul of 1000 cells per well are dispensed in all wells except column 4, into white solid-bottom TC-treated Kalypsys plates. The cells are kept in Opti-MEM and supplemented with 10% FBS and dispensed using a Multidrop (Thermo). Then using the Kalypsys pin-tool, 23nl of compounds are pinned. The compounds are starting concentration at 10mM, with 1:5 dilution, 4 points, and the control compound nocodazole is pinned in column 1 at 25mM, 1:3 dilution, in duplicate, 25mM nocodazole is pinned in column 2. Please note, all concentrations are working concentrations. 5ul of 1pM purified luciferase enzyme is dispensed using the Kalypsys dispenser in column 4. Plates are incubated for 24 hrs at 37 deg C, 5% CO2, and 95% humidity. Then 4ul of the detection reagent Amplite (ABD Bioquest) is added using the Kalypsys dispenser. Plates are incubated for 10 min at ambient room temperature and are then read on the ViewLux (Perkin Elmer) using a clear filter for a luminescent read-out.
Potency is read from the fitted curve at half-maximal effect.

For `O=C(COC(=O)c1cc2ccccc2oc1=O)Nc1cccc(S(=O)(=O)N2CCCCCC2)c1`, which “activity change, positive = activation” value is on record?
The value was inactive: -57.6%.

With `O=C(Nc1ccc(F)cc1F)c1cc2nc3c(c(C(F)(F)F)n2n1)CCCC3` as the molecule, how does the Potency read?
The Potency was active: 5.8 µM.

For `COc1ccccc1NS(=O)(=O)c1ccc(C(=O)Nc2ncccc2O)cc1`, which Potency is on record?
Its Potency is inconclusive: 29.1 µM [activator, partial curve, poor fit].

Which Potency does the source give for `Cc1cccc(NC(=O)/C=C/c2ccc([N+](=O)[O-])s2)c1` here?
The Potency was inconclusive: 6.51 µM [activator, single point].

Which Potency does the source give for `Cc1nc(Nc2nc(CSc3nc4ccccc4[nH]3)cc(=O)[nH]2)nc2ccccc12` here?
Its Potency is inconclusive: 16.4 µM [activator, single point].

Which Potency does the source give for `CCN(CC)CCn1c(SCC(=O)Nc2ccc3c(c2)CCC3)nc2ccccc2c1=O` here?
Its Potency is active: 8.2 µM.

Which Potency does the source give for `Clc1ccc(-c2nnc(SCc3ccon3)o2)c(Cl)c1` here?
Its Potency is active: 1.84 µM.

For `Brc1ccc(-c2nc(-c3ccccc3)no2)o1`, which Potency is on record?
Its Potency is inconclusive: 4.61 µM [activator, single point].

With `O=C(Nc1ccc(NC(=O)C2CCCCC2)cn1)c1ccco1` as the molecule, how does the Potency read?
The Potency was inconclusive: 2.91 µM [activator, single point].

For `Cc1ccnc2c1ccc1c(C)ccnc12`, which Potency is on record?
Its Potency is inconclusive: 6.51 µM [activator, single point].

With `CN(C)c1ccc(/C=N/Nc2nncc3ccccc23)cc1` as the molecule, how does the “activity change, positive = activation” value read?
The value was inactive: 59.1%.

With `CCc1cc(C(=O)c2ccc(C)cc2)c(NC(=O)CCl)s1` as the molecule, how does the Potency read?
The Potency was inconclusive: 10.3 µM [activator, partial curve, poor fit].

With `O=C(CCN1C(=O)NC2(CCCC2)C1=O)Nc1ccc(-c2nc3ccccc3s2)cc1` as the molecule, how does the Potency read?
Its Potency is active: 2.31 µM.

For `Cc1ccc(C2C(C#N)=C(N)Oc3cc4c(cc32)OCO4)cc1` (stereo not given), which “activity change, positive = activation” value is on record?
Its value is inactive: 41%.

Which Potency does the source give for `COc1ccc(/C(N)=N/OC(=O)c2cccs2)cc1` here?
The Potency was inconclusive: 25.9 µM [activator, partial curve, poor fit].

For `CC(OC(=O)c1cnccn1)C(=O)Nc1nc(-c2cccc([N+](=O)[O-])c2)cs1` (stereo not given), which “activity change, positive = activation” value is on record?
Its value is inactive: -31.6%.

Which “activity change, positive = activation” value does the source give for `CC(OC(=O)c1cccc([N+](=O)[O-])c1)C(=O)N1CCc2ccccc21` (stereo not given) here?
The value was inactive: -25.6%.

Which “activity change, positive = activation” value does the source give for `Cc1ccc(C(=O)Nc2nnc(SCC(=O)N3CCCc4ccccc43)s2)cc1` here?
Its value is inactive: -62.4%.

With `O=C(CC1SC(N2CCCC2)=NC1=O)Nc1ccc(C(=O)Nc2ncccc2O)cc1` (stereo not given) as the molecule, how does the Potency read?
The Potency was inconclusive: 20.6 µM [activator, single point].

For `COc1cccc(-c2nc3cc(C)ccc3o2)c1`, which Potency is on record?
The Potency was inconclusive: 0.206 µM [activator, full curve, poor fit].

Which Potency does the source give for `COc1ccc(C(=O)NC2CCc3ccccc32)cc1OC1CCN(C(C)C)CC1` (stereo not given) here?
Its Potency is inconclusive: 23.1 µM [activator, single point].

For `CC(C)(C)CC(=O)O/N=C(\N)c1ccccn1`, which Potency is on record?
The Potency was active: 0.164 µM.

With `COC(=O)C1=C(C(=O)c2ccccc2)C(c2ccc(OC)c(OC)c2)Nc2nnnn21` (stereo not given) as the molecule, how does the “activity change, positive = activation” value read?
Its value is inactive: -13.2%.

Which Potency does the source give for `Cc1ccc2c(c1)sc1nc(=O)n(-c3cccc(Cl)c3)c(=O)n12` here?
Its Potency is inconclusive: 2.59 µM [activator, partial curve, poor fit].

Which “activity change, positive = activation” value does the source give for `c1ccc(-c2nnc(-c3ccccn3)nc2NC2CCCCC2)cc1` here?
The value was inactive: -7.46%.

For `Cc1cc(C)nc(SCc2csc(-c3ccccc3)n2)n1`, which Potency is on record?
The Potency was inconclusive: 6.51 µM [activator, single point].

For `N#CC(Cc1ccccc1)(Cc1ccccc1)C(=O)NN`, which Potency is on record?
The Potency was active: 29.1 µM.

With `Cc1cc2nc(-c3ccc(SCC(=O)Nc4ccc(S(=O)(=O)NC5CC5)cc4)nc3)[nH]c2cc1C` as the molecule, how does the “activity change, positive = activation” value read?
Its value is inactive: 29.4%.

Which Potency does the source give for `Clc1ccc2nc(-c3ccc(Br)s3)cn2c1` here?
Its Potency is inconclusive: 0.58 µM [activator, full curve, poor fit].

With `CC(=O)OCC(=O)Nc1ccc(N=Nc2ccccc2)cc1` as the molecule, how does the Potency read?
The Potency was inconclusive: 23.1 µM [activator, single point].

For `O=C(NC(=S)NCCc1ccccc1)C1CCCCC1`, which “activity change, positive = activation” value is on record?
Its value is inactive: -17%.

For `Cc1cs/c(=N\N=C\c2ccc(O)cc2)n1Cc1ccco1`, which Potency is on record?
The Potency was inconclusive: 18.4 µM [activator, single point].

For `COc1ccccc1C(=O)O/N=C(\N)c1ccccc1Cl`, which Potency is on record?
The Potency was inconclusive: 29.1 µM [activator, single point].

With `O=C(COC(=O)c1ccc(-c2nnc(-c3ccccc3)o2)cc1)c1ccccc1` as the molecule, how does the Potency read?
The Potency was active: 0.146 µM.

With `COc1ccc2cnn(CCOc3ccccc3)c(=O)c2c1OC` as the molecule, how does the Potency read?
Its Potency is inconclusive: 2.31 µM [activator, full curve, poor fit].

Which Potency does the source give for `c1ccc(-c2cn3c(n2)-c2ccccc2C3)cc1` here?
The Potency was inconclusive: 0.92 µM [activator, partial curve, poor fit].

Which Potency does the source give for `CCCN1CCC(NC(=O)Cc2ccc(C)cc2)CC1` here?
The Potency was inconclusive: 2.31 µM [activator, partial curve, poor fit].

Which “activity change, positive = activation” value does the source give for `CCOC(=O)c1ccc(N2Cc3ccccc3C2=NC(=O)c2cccs2)cc1` here?
Its value is inactive: 40.9%.

For `O=C(CSC1=NCCS1)N1CCN(c2ccccc2)CC1`, which Potency is on record?
Its Potency is inconclusive: 3.66 µM [activator, full curve, poor fit].

Which Potency does the source give for `Cc1ccc(-n2c(C)cc(C(=O)CSc3nnc4ccccn34)c2C)cc1` here?
Its Potency is active: 0.731 µM.
